{"source": "PubChem BioAssay AID743448 (Peter MacCallum Cancer Centre, 2014)", "aim": "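Test whether knock-downs sensitising to vorinostat hold across several colon lines but not etoposide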 (follow-up of hits)", "cells": "four human colon cancer cell lines: HCT116-VR (vorinostat-resistant HCT116 derivative), SW480, SW620 and LIM1215", "reagent": "siRNA pool against human genes, 40 nM siRNA pool", "duration": "drug added two days after transfection, read one day later", "conditions": "vorinostat 2.5 µM on one half of each plate, etoposide 5 µM on the other half", "measurement": "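Caspase luminescence and viability fluorescence, each expressed relative to mock transfection and also as robust z-scores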", "reading the numbers": "caspase ratio to mock: higher = more caspase activity than mock; viability ratio to mock: higher = more live cells than mock", "rule for the call": "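Hit means caspase ratio to mock at least 1.6, or viability ratio to mock at most 0.75; wells with strong death in the absence of drug get no call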", "meaning of the calls": "active = caspase or viability hit in this panel; inactive = no change, or unhealthy well", "note": "Shown is an unselected part of 106 deposited reagents. 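Calls are per line and drug panel including etoposide, not vorinostat-specific; gene picks needed hits in two or more extra lines with vorinostat versus etoposide.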 Not all columns of the deposit are shown. Reagent sequences are not shown."}
{"gene": "RBM42", "cell line and drug panel": "LIM1215 cells with etoposide", "caspase ratio to mock": 1.34, "viability ratio to mock": 0.74, "Call": "active"}
{"gene": "RBM42", "cell line and drug panel": "LIM1215 cells with vorinostat", "caspase ratio to mock": 1.86, "viability ratio to mock": 0.82, "Call": "active"}
{"gene": "RBM42", "cell line and drug panel": "SW480 cells with etoposide", "caspase ratio to mock": 0.84, "viability ratio to mock": 0.89, "Call": "inactive"}
{"gene": "RBM42", "cell line and drug panel": "SW480 cells with vorinostat", "caspase ratio to mock": 1.14, "viability ratio to mock": 0.87, "Call": "inactive"}
{"gene": "RBM42", "cell line and drug panel": "SW620 cells with etoposide", "caspase ratio to mock": 0.5, "viability ratio to mock": 0.82, "Call": "inactive"}
{"gene": "RBM42", "cell line and drug panel": "SW620 cells with vorinostat", "caspase ratio to mock": 0.66, "viability ratio to mock": 0.94, "Call": "inactive"}
{"gene": "RBM42", "cell line and drug panel": "vorinostat-resistant HCT116 cells with etoposide", "caspase ratio to mock": 2.03, "viability ratio to mock": 0.7, "Call": "active"}
{"gene": "RBM42", "cell line and drug panel": "vorinostat-resistant HCT116 cells with vorinostat", "caspase ratio to mock": 1.35, "viability ratio to mock": 0.84, "Call": "inactive"}
{"gene": "PLAG1", "cell line and drug panel": "LIM1215 cells with etoposide", "caspase ratio to mock": 1.47, "viability ratio to mock": 1, "Call": "inactive"}
{"gene": "PLAG1", "cell line and drug panel": "LIM1215 cells with vorinostat", "caspase ratio to mock": 1.15, "viability ratio to mock": 0.97, "Call": "inactive"}
{"gene": "PLAG1", "cell line and drug panel": "SW480 cells with etoposide", "caspase ratio to mock": 3.12, "viability ratio to mock": 0.87, "Call": "inactive"}
{"gene": "PLAG1", "cell line and drug panel": "SW480 cells with vorinostat", "caspase ratio to mock": 1.32, "viability ratio to mock": 0.79, "Call": "inactive"}
{"gene": "PLAG1", "cell line and drug panel": "SW620 cells with etoposide", "caspase ratio to mock": 0.94, "viability ratio to mock": 0.96, "Call": "inactive"}
{"gene": "PLAG1", "cell line and drug panel": "SW620 cells with vorinostat", "caspase ratio to mock": 0.96, "viability ratio to mock": 0.89, "Call": "inactive"}
{"gene": "PLAG1", "cell line and drug panel": "vorinostat-resistant HCT116 cells with etoposide", "caspase ratio to mock": 1.96, "viability ratio to mock": 1.03, "Call": "active"}
{"gene": "PLAG1", "cell line and drug panel": "vorinostat-resistant HCT116 cells with vorinostat", "caspase ratio to mock": 1.62, "viability ratio to mock": 0.99, "Call": "active"}

A few values from the entries so far:
For “Call”, PLAG1, cell line and drug panel SW480 cells with etoposide reads inactive
Under “Call”, RBM42, cell line and drug panel SW480 cells with etoposide reads inactive
